Test results taken from patent US20260266848A1, “COMPOSITIONS AND METHODS FOR DIAGNOSING AND TREATING DYSTONIA” (Duke University, priority 2023, published 2026).

Legend:
Type in all cases: cell-based, mouse
WT MEF EVs = assay: Quantitative LC-MS/MS proteomics of EVs from ISRIB-treated WT MEF cultures; conditions: Directionality of protein change in MEFs EV dataset in WT derived MEFs treated with ISRIB
DYT-TOR1A MEF EVs [1] = assay: Quantitative LC-MS/MS proteomics of MEF EVs, DYT-TOR1A genotype vs WT; conditions: Directionality of protein change in MEFs EV dataset between WT and DYT1 derived MEFs
DYT-TOR1A MEF EVs [2] = assay: Quantitative LC-MS/MS proteomics of EVs from drug-treated DYT-TOR1A MEF cultures (ritonavir, salubrinal); conditions: for DYT1/DYT1 + RTV: Directionality of protein change in MEFs EV dataset in DYT1 derived MEFs treated with Ritonavir; for RTV Corrective Direction: Ritonavir; for RTV Corrective Direction / Sal Corrective Direction: was treatment in MEF's in the direction of WT-like?; for Sal Corrective Direction: Salubrinal; for DYT1/DYT1 + Sal: Directionality of protein change in MEFs EV dataset in DYT1 derived MEFs treated with salubrinal

Flna
WT + ISRIB/WT (WT MEF EVs): DOWN
DYT1/WT (DYT-TOR1A MEF EVs [1]): DOWN
DYT1/DYT1 + RTV (DYT-TOR1A MEF EVs [2]): DOWN
RTV Corrective Direction (DYT-TOR1A MEF EVs [2]): Yes
Sal Corrective Direction (DYT-TOR1A MEF EVs [2]): No

Rhoa
WT + ISRIB/WT (WT MEF EVs): DOWN
DYT1/WT (DYT-TOR1A MEF EVs [1]): DOWN
DYT1/DYT1 + RTV (DYT-TOR1A MEF EVs [2]): DOWN
DYT1/DYT1 + Sal (DYT-TOR1A MEF EVs [2]): DOWN
RTV Corrective Direction (DYT-TOR1A MEF EVs [2]): Yes
Sal Corrective Direction (DYT-TOR1A MEF EVs [2]): Yes

Usp7
WT + ISRIB/WT (WT MEF EVs): DOWN
DYT1/WT (DYT-TOR1A MEF EVs [1]): DOWN
DYT1/DYT1 + RTV (DYT-TOR1A MEF EVs [2]): DOWN
DYT1/DYT1 + Sal (DYT-TOR1A MEF EVs [2]): DOWN
RTV Corrective Direction (DYT-TOR1A MEF EVs [2]): Yes
Sal Corrective Direction (DYT-TOR1A MEF EVs [2]): Yes

Pcmt1
WT + ISRIB/WT (WT MEF EVs): DOWN
DYT1/WT (DYT-TOR1A MEF EVs [1]): DOWN
DYT1/DYT1 + RTV (DYT-TOR1A MEF EVs [2]): DOWN
DYT1/DYT1 + Sal (DYT-TOR1A MEF EVs [2]): DOWN
RTV Corrective Direction (DYT-TOR1A MEF EVs [2]): Yes
Sal Corrective Direction (DYT-TOR1A MEF EVs [2]): Yes

Psme4
WT + ISRIB/WT (WT MEF EVs): DOWN
DYT1/WT (DYT-TOR1A MEF EVs [1]): DOWN
DYT1/DYT1 + RTV (DYT-TOR1A MEF EVs [2]): DOWN
RTV Corrective Direction (DYT-TOR1A MEF EVs [2]): Yes
Sal Corrective Direction (DYT-TOR1A MEF EVs [2]): No

Tln2
WT + ISRIB/WT (WT MEF EVs): DOWN
DYT1/WT (DYT-TOR1A MEF EVs [1]): DOWN
DYT1/DYT1 + RTV (DYT-TOR1A MEF EVs [2]): DOWN
RTV Corrective Direction (DYT-TOR1A MEF EVs [2]): Yes
Sal Corrective Direction (DYT-TOR1A MEF EVs [2]): No

Tardbp
WT + ISRIB/WT (WT MEF EVs): DOWN
DYT1/WT (DYT-TOR1A MEF EVs [1]): DOWN
DYT1/DYT1 + RTV (DYT-TOR1A MEF EVs [2]): DOWN
DYT1/DYT1 + Sal (DYT-TOR1A MEF EVs [2]): DOWN
RTV Corrective Direction (DYT-TOR1A MEF EVs [2]): Yes
Sal Corrective Direction (DYT-TOR1A MEF EVs [2]): Yes
